Experimental data: PubChem BioAssay AID652243 (Drosophila RNAi Screening Center, 2013)

Purpose: 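Knock-downs that decrease or increase androgen receptor reporter signal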 (primary screen)
Cell system: Drosophila S2R+ cells
Reagent: long dsRNA against Drosophila genes
Time to read-out: 72 h (48 h, then 24 h hormone)
Treatment: synthetic androgen R1881 at 10 nM for 24 h
Measured: 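Firefly light from an androgen-responsive reporter and Renilla control light per well, raw and unnormalised, for each of two replicates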
Direction: firefly reporter light: higher = more light from androgen-responsive reporter; Renilla control light: higher = more constitutive control signal (cell number, transfection)
Call rule: 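Hit when the log firefly-to-Renilla ratio dropped or increased by a fixed fold versus the mean of GFP or LacZ controls across duplicate plates; lowering cut given as 1.5 and as 3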
Meaning of the calls: active = hit: reporter lowered or raised; inactive = no hit
In all, the deposit lists about 24,000 reagents; below is an unselected part of those that have a named target and a result. Over the whole deposit, 246 (1%) got an active call. 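Plates not normalised; calls are printed but the firefly/Renilla ratio behind them is not deposited; fold cut for lowering reported inconsistently.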 Raw values vary from plate to plate and are shown uncorrected. Reagents against one gene are numbered here. The record does not give: the amount of reagent.

Pi3K92E #1
- firefly reporter light, replicate 1: 1.23e5
- firefly reporter light, replicate 2: 90402
- Renilla control light, replicate 1: 8.26e5
- Renilla control light, replicate 2: 8.75e5
- outcome: inactive

Pi3K92E #2
- outcome: inactive

Pi3K92E #3
- outcome: inactive

Tmhs
- firefly reporter light, replicate 1: 1.12e6
- firefly reporter light, replicate 2: 7.98e5
- Renilla control light, replicate 1: 2.40e6
- Renilla control light, replicate 2: 1.63e6
- outcome: inactive

CG40172 (retired record)
- firefly reporter light, replicate 1: 8.97e5
- firefly reporter light, replicate 2: 6.93e5
- Renilla control light, replicate 1: 1.92e6
- Renilla control light, replicate 2: 1.28e6
- outcome: inactive

shakB #1
- firefly reporter light, replicate 1: 6.36e5
- firefly reporter light, replicate 2: 1.01e6
- Renilla control light, replicate 1: 3.37e6
- Renilla control light, replicate 2: 1.57e6
- outcome: inactive

shakB #2
- firefly reporter light, replicate 1: 2.73e5
- firefly reporter light, replicate 2: 1.68e5
- Renilla control light, replicate 1: 8.64e5
- Renilla control light, replicate 2: 6.66e5
- outcome: inactive

shakB #3
- firefly reporter light, replicate 1: 6.84e5
- firefly reporter light, replicate 2: 8.82e5
- Renilla control light, replicate 1: 2.07e6
- Renilla control light, replicate 2: 1.67e6
- outcome: inactive

shakB #4
- firefly reporter light, replicate 1: 6.20e5
- firefly reporter light, replicate 2: 1.08e6
- Renilla control light, replicate 1: 1.25e6
- Renilla control light, replicate 2: 1.94e6
- outcome: inactive

shakB #5
- firefly reporter light, replicate 1: 3.69e5
- firefly reporter light, replicate 2: 4.40e5
- Renilla control light, replicate 1: 3.38e5
- Renilla control light, replicate 2: 7.52e5
- outcome: inactive

lqfR #1
- firefly reporter light, replicate 1: 41379
- firefly reporter light, replicate 2: 32936
- Renilla control light, replicate 1: 96545
- Renilla control light, replicate 2: 1.05e5
- outcome: inactive

lqfR #2
- firefly reporter light, replicate 1: 2.00e5
- firefly reporter light, replicate 2: 2.58e5
- Renilla control light, replicate 1: 3.07e6
- Renilla control light, replicate 2: 3.72e6
- outcome: inactive

lqfR #3
- firefly reporter light, replicate 1: 7.66e5
- firefly reporter light, replicate 2: 7.36e5
- Renilla control light, replicate 1: 9.83e5
- Renilla control light, replicate 2: 8.86e5
- outcome: inactive

Arp2
- firefly reporter light, replicate 1: 4.33e5
- firefly reporter light, replicate 2: 4.96e5
- Renilla control light, replicate 1: 2.33e6
- Renilla control light, replicate 2: 2.47e6
- outcome: inactive

Reformatted: 2 of the entries above
{"target":"Pi3K92E","reagent":2,"outcome":"inactive"}
{"target":"Pi3K92E","reagent":3,"outcome":"inactive"}
